Source: PubChem BioAssay AID1671190 (National Center for Advancing Translational Sciences (NCATS), 2021)
In all, about 580,000 compounds went through this assay and about 6,100 (1.1%) were called active. Inconclusive results, whose numbers are uncertain, are shown with a selection of clear calls. Calls come from the whole dose curve; as a rule, active = well fitted inhibition curve with a large enough effect; inconclusive = small, poorly fitted or top-dose-only effect, or another doubt; inactive = no such curve, though single readings can be large or run the other way. Where the call is inconclusive, the potency comes from a doubtful curve fit.

Chains of the proteins cited; added tags and fusions are not shown. Lines headed by an entry give the natural chain unless they say otherwise; changes in a name come on top.
UniProt P18054: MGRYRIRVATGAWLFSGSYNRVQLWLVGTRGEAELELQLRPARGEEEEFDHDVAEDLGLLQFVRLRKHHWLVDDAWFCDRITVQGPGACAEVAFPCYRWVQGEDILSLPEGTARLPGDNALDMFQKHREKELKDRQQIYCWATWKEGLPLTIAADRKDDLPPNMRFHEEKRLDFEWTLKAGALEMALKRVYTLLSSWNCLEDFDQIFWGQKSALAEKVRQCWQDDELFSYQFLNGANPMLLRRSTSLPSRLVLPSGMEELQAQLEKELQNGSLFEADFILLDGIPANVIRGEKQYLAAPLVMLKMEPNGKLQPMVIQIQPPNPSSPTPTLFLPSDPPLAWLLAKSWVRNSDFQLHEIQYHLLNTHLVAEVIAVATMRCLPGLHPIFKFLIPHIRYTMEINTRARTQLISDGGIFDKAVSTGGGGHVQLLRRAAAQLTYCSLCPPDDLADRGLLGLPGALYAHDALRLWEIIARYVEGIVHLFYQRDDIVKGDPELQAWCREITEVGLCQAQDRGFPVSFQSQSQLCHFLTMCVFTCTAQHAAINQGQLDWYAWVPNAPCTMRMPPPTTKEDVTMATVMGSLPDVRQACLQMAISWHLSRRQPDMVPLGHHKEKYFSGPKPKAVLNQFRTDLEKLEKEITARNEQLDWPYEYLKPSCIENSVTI

Biological target: Polyunsaturated fatty acid lipoxygenase ALOX12 (Homo sapiens) (UniProt P18054)
Experiment: Primary qHTS assay for inhibitors of human arachidonate 12S-lipoxygenase (ALOX12): Round 2
Conditions: purified 12hLO, xylenol orange hydroperoxide absorbance; series mostly up to 108 µM
Outline: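 Hydroperoxide product was detected by ferrous iron/xylenol orange as the 573 to 405 nm absorbance ratio. Arachidonic acid at 40 uM (final) was turned over for 30 min at room temperature by 150 nM human 12hLO, pH 7.0 Hepes buffer, after 15 min compound preincubation.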
Potency is the fitted concentration of half-maximal effect.

| SMILES | Potency |
| --- | --- |
| OC(c1ccc(F)cc1)c1nc(-c2ccc(Cl)cc2)cs1 (configuration not stated) | inconclusive: 70.8 µM [inhibitor, partial curve, poor fit] |
| C1=CC2(C=C1)OC21CCC2(C=CC3(C2)OC3C2CCCCC2)CC1 (configuration not stated) | inconclusive: 44.7 µM [inhibitor, partial curve, poor fit] |
| O=C(Nc1cccc(C(F)(F)F)c1)Oc1ccc(Cl)c2cccnc12 | inconclusive: 44.7 µM [inhibitor, partial curve, poor fit] |
| CNc1nc(-c2ccc3c(c2)CCN3C(=O)c2ccccc2F)cs1 | inconclusive: 50.1 µM [inhibitor, partial curve, poor fit] |
| Brc1ccc(C=Nc2cccc3ccccc23)cc1 | inconclusive: 12.6 µM [inhibitor, partial curve, poor fit] |
| CC(C)CCN1NC2(CCC(C)CC2)NC1=S (configuration not stated) | inconclusive: 31.6 µM [inhibitor, single point] |
| Cc1ccc2nc(Nc3ccc(F)cc3)c3nncn3c2c1 | inconclusive: 35.5 µM [inhibitor, single point] |
| O=C(COc1ccc(Br)cc1Cl)c1ccc[nH]1 | inconclusive: 44.7 µM [inhibitor, partial curve, poor fit] |
| Cc1ccc(NC(=O)c2cc(-c3ccccn3)nc3ccc(C)cc23)cc1 | inconclusive: 28.2 µM [inhibitor, partial curve, poor fit] |
| CN(Cc1cc(Cl)cc(Cl)c1O)Cc1c(O)ccc2ccccc12 | inconclusive: 35.5 µM [inhibitor, partial curve, poor fit] |
| CC(C)NC(=O)N1CCNC[C@@H]1C(=O)N[C@@H](CC1CCCCC1)C(N)=O | inactive |
| CC(C)(C)c1ccc(OCC(O)CNS(=O)(=O)c2ccc(Br)cc2)cc1 (configuration not stated) | inconclusive: 31.6 µM [inhibitor, partial curve, poor fit] |
| Cc1ccc(OC(C)C(=O)N2CCc3ccccc32)cc1 (configuration not stated) | inconclusive: 44.7 µM [inhibitor, single point] |
| CCN1CCCCC12Cc1ccccc1CN(C(=O)CCCN(C)C)C2 (configuration not stated) | inconclusive: 20 µM [inhibitor, full curve, poor fit] |
| O=C(NC1CCN(Cc2ccccc2)C1)c1c[nH]c2ccccc12 (configuration not stated) | inconclusive: 7.94 µM [inhibitor, full curve, poor fit] |
| CCOc1ccc(C(C)(O)CN2CCOCC2)cc1 (configuration not stated) | inconclusive: 89.1 µM [inhibitor, single point] |
| CC(NC(=O)Cn1ncc2c3ccccc3n(Cc3ccc(F)cc3)c2c1=O)c1ccccc1 (configuration not stated) | inactive |

Reprinted from the results shown for reference:

| SMILES | Potency |
| --- | --- |
| CC(C)NC(=O)N1CCNC[C@@H]1C(=O)N[C@@H](CC1CCCCC1)C(N)=O | inactive |
| CC(C)(C)c1ccc(OCC(O)CNS(=O)(=O)c2ccc(Br)cc2)cc1 (configuration not stated) | inconclusive: 31.6 µM [inhibitor, partial curve, poor fit] |
